Assay results taken from PubChem BioAssay AID1671190 (National Center for Advancing Translational Sciences (NCATS), 2021).
The whole screen tested about 580,000 compounds, of which about 6,100 (1.1%) were called active. The shares of active, inactive and inconclusive entries below differ from those in the screen. The call rests on the fitted dose curve; in most records, active means well fitted inhibition curve with a large enough effect; inconclusive means small, poorly fitted or top-dose-only effect, or another doubt; inactive means no such curve, though single readings can be large or run the other way. Potencies beside an inconclusive call are fits to weak or partial responses and may not hold up.

Amino acid sequences for entries named in this document (tags omitted). A change or cut given only in a name is not applied to a line headed by its entry.
UniProt P18054: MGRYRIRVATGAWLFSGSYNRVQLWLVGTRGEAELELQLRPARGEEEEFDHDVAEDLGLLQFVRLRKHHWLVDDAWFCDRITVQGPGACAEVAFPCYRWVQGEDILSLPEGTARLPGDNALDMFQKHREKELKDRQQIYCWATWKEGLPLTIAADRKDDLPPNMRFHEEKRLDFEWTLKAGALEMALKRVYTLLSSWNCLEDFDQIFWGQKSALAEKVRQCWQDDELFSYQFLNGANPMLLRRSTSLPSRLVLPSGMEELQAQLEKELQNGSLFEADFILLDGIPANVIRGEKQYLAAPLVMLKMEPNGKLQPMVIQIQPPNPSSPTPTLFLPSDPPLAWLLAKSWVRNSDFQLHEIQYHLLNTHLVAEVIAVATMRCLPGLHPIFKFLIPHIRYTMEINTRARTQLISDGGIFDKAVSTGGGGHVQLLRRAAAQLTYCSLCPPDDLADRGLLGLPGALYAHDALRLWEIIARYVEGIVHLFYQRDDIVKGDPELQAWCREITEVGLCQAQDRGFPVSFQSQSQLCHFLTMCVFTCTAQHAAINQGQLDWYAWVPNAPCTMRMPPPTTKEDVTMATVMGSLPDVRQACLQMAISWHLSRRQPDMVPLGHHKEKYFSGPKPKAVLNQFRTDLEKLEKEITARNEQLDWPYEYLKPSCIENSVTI

target: Polyunsaturated fatty acid lipoxygenase ALOX12 (Homo sapiens) (UniProt P18054); assay: Primary qHTS assay for inhibitors of human arachidonate 12S-lipoxygenase (ALOX12): Round 2; conditions: purified 12hLO, xylenol orange hydroperoxide absorbance; series mostly up to 108 µM
How it was run: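 Hydroperoxide product was detected by ferrous iron/xylenol orange as the 573 to 405 nm absorbance ratio. Arachidonic acid at 40 uM (final) was turned over for 30 min at room temperature by 150 nM human 12hLO, pH 7.0 Hepes buffer, after 15 min compound preincubation.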
Potency means the concentration at half of the fitted maximal effect.

Structure (SMILES)	Potency
O=S(=O)(NCc1ccncc1)c1ccc(Br)s1	inactive
Cc1onc(-c2c(F)cccc2Cl)c1C(=O)Nc1cccc(S(=O)(=O)NCc2ccco2)c1	inactive
CC(=O)Nc1ccc(C(=O)OCC(=O)c2ccc(C)c([N+](=O)[O-])c2)cc1	inactive
CCc1ccc(NC(=O)N(CCN2CCOCC2)Cc2ccc3c(c2)CCCN3CC)cc1	inactive
O=C(NCc1ccco1)c1cc(S(=O)(=O)C2CCS(=O)(=O)C2)ccc1F (centres undefined)	inconclusive: 39.8 µM [inhibitor, single point]
Cc1ccc(/C=C/C(=O)Nc2ccc(Oc3ccccc3)cc2)o1	active: 15.8 µM
Oc1cc(-c2ccncc2)cc2cccnc12	inconclusive: 22.4 µM [inhibitor, partial curve]
CCn1nc(C)c(-c2cc(C(=O)N3CCCCCCNC(=O)CC3)no2)c1C	inactive
COc1cc(C(=O)Nc2ccc3c(c2)N(C(=O)CCN(C)C)c2ccccc2CC3)cc(OC)c1OC	inactive
[S-]c1nnc(-c2ccc(Br)cc2)n1-c1ccccc1.[Zn+2]	inconclusive: 10 µM [inhibitor, full curve, poor fit]
Cc1cnc(CN2CCC3(CCC(=O)N(CCCO)C3)CC2)[nH]1	inactive
Cc1ccc(-c2csc(NC(=O)c3ccc([N+](=O)[O-])o3)n2)cc1	inactive
CCCOC(=O)c1ccc(Oc2c(C)oc3cc(OC(=O)C(C)C)ccc3c2=O)cc1	inactive
COc1ccccc1Oc1c(C)oc2cc(OC(=O)C(C)(C)C)ccc2c1=O	inactive
COc1cccc(NC(=O)N[C@H]2C[C@@H](C(=O)N[C@@H](CCCNC(=O)C=C(C)C)C(N)=O)N(C(=O)C=C(C)C)C2)c1	inactive
COc1ccc2c(c1)[nH]c1c(=O)n(/N=C/C3C(C)C=C(C)CC3C)c(=O)[nH]c12 (centres undefined)	inconclusive: 50.1 µM [inhibitor, partial curve, poor fit]
CCn1c(SCC(=O)Nc2ccc(N3CCOCC3)cc2)nnc1C1CC1	inconclusive: 126 µM [inhibitor, single point]
Fc1ccc(C2=Nn3c(nnc3-c3ccco3)SC2)cc1	inactive
O=C1NC(=Nc2ccccc2)S/C1=C\C=C\c1ccco1	active: 50.1 µM
CC1(c2nnnn2Cc2ccccc2)CCC(=O)N1Cc1cccc(C(F)(F)F)c1 (centres undefined)	inconclusive: 50.1 µM [inhibitor, single point]
CCOCc1[nH]c(=S)[nH]c(=O)c1Cc1ccc(OCC(C)C)cc1	inconclusive: 70.8 µM [inhibitor, partial curve, poor fit]
CCCc1nc2ccccc2c(C(=O)OCC(=O)NCC(C)C)c1CC	inconclusive: 89.1 µM [inhibitor, single point]

3 entries already listed, ordered by number of heavy atoms, falling:
Structure (SMILES)	Potency
CCCOC(=O)c1ccc(Oc2c(C)oc3cc(OC(=O)C(C)C)ccc3c2=O)cc1	inactive
CCCc1nc2ccccc2c(C(=O)OCC(=O)NCC(C)C)c1CC	inconclusive: 89.1 µM [inhibitor, single point]
CCOCc1[nH]c(=S)[nH]c(=O)c1Cc1ccc(OCC(C)C)cc1	inconclusive: 70.8 µM [inhibitor, partial curve, poor fit]

Later entries

Structure (SMILES)	Potency
CC1(C)[C@H](Cc2cc(COc3ccccc3)on2)C[C@@H]1NC(=O)COc1ccccc1	inconclusive: 63.1 µM [inhibitor, partial curve]
O=[N+]([O-])c1ccc(Cl)c(S(=O)(=O)Nc2cccc(S(=O)(=O)NC3=NCCC3)c2)c1	inconclusive: 44.7 µM [inhibitor, partial curve, poor fit]
Cc1cc(S(=O)(=O)Nc2cccc(O)c2)c(C)s1	inconclusive: 56.2 µM [inhibitor, partial curve, poor fit]
CC(C)(c1ccc(O)c([N+](=O)[O-])c1)c1ccc(O)c([N+](=O)[O-])c1	inconclusive: 50.1 µM [inhibitor, partial curve, poor fit]
CN(CC(=O)C(C(N)=O)c1ccccc1)c1ccccc1 (centres undefined)	inconclusive: 31.6 µM [inhibitor, partial curve, poor fit]
COc1ccc(C)cc1NCc1ccc(OC)c(C)c1OC	inconclusive: 0.501 µM [inhibitor, full curve, poor fit]
Cc1nc(NC(=O)c2ccccc2)sc1-c1csc(Nc2ccc(C(F)(F)F)cc2)n1	inconclusive: 100 µM [inhibitor, partial curve, poor fit]
O=C(Cc1ccc(Br)cc1)NCCc1ccc(Cl)cc1Cl	inactive
O=C(OCc1cc(-c2ccccc2)no1)c1cc(Cl)c[nH]1	inconclusive: 39.8 µM [inhibitor, partial curve, poor fit]
COc1ccc(-c2ccc(C(=O)Nc3cccc(C(F)(F)F)c3)c3occc23)c(C)c1	inconclusive: 79.4 µM [inhibitor, partial curve, poor fit]
CC(C)C(=O)NC(C)c1ccc(Cl)cc1Cl (centres undefined)	inactive
O=C(c1ccc(-c2ccccc2)cc1)N(Cc1cccs1)C1CC1	inactive
Cc1ccc(C)c(NC(=S)N2CCC(c3nc4ccccc4s3)CC2)c1	inconclusive: 44.7 µM [inhibitor, partial curve, poor fit]
COc1ccccc1CCn1cnc(-c2ccc(Br)cc2)c1C(C)C	inconclusive: 44.7 µM [inhibitor, partial curve, poor fit]
O=C1C(=O)c2ccccc2C(O)=C1c1ccccc1F	inconclusive: 31.6 µM [inhibitor, partial curve, poor fit]
CCSc1oc(-c2cccs2)nc1S(=O)(=O)c1ccc(Br)cc1	inconclusive: 20 µM [inhibitor, partial curve]
O=CN1CCN(C(C(=O)NC2CCCCC2)c2cc3c(cc2[N+](=O)[O-])OCO3)CC1 (centres undefined)	inconclusive: 20 µM [inhibitor, partial curve, poor fit]
COC(=O)c1cc(=O)c2cccc(OC)c2[nH]1	inconclusive: 89.1 µM [inhibitor, partial curve, poor fit]
CCOc1ccc(C2=Nn3c(CC)nnc3SC2)cc1	inconclusive: 31.6 µM [inhibitor, partial curve, poor fit]
O=C(O)Cn1cc(/C=C2/SC(=O)N(CC(=O)N3CCCCCC3)C2=O)c2ccccc21	inconclusive: 39.8 µM [inhibitor, partial curve, poor fit]
c1ccc(Cn2c(NCc3ccncc3)nc3ccccc32)cc1	inactive
Cc1ccc(NC(=O)CCc2nnc(SCC(=O)Nc3ccccc3C)n2C)cc1Cl	inconclusive: 0.141 µM [inhibitor, full curve, poor fit]
